{"sequences": {"note": "Protein sequences, listed by entry. Tags and fused reporters are not part of them.", "UniProt P40073": "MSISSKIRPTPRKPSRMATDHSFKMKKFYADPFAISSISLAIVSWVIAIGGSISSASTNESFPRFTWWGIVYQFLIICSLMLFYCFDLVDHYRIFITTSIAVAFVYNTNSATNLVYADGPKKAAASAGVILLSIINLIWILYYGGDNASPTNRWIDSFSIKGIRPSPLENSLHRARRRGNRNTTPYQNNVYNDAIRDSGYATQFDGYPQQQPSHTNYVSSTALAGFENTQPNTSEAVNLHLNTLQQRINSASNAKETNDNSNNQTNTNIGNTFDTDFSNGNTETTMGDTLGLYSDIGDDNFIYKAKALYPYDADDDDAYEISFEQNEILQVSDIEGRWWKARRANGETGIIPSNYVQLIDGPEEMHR"}, "source": "paper PMC4411306", "about": "“Osmosensing and scaffolding functions of the oligomeric four-transmembrane domain osmosensor Sho1” (Nature Communications, 2015)", "key": {"[1]": {"target": "GST-Sho1 (Saccharomyces cerevisiae) (UniProt P40073)", "assay": "co-IP; GST-Sho1 derivative and Opy2-GFP derivative co-expressed (GAL1 promoter) in TM257; lysate in Buffer A with a mild detergent (0.3% Brij-35; digitonin, Brij 97 or Brij L23); GST-Sho1 precipitated with glutathione Sepharose, Opy2-GFP probed with anti-GFP"}, "[2]": {"target": "GST-Ste50ΔSB (Saccharomyces cerevisiae)", "assay": "co-IP; GST-Ste50 derivative and HA-Ste11ΔC co-expressed (GAL1 promoter) in yeast KY594-1; lysate in Buffer A with 0.2% Triton-X-100; GST-Ste50 precipitated with glutathione Sepharose, HA-Ste11ΔC probed with anti-HA"}, "[3]": {"target": "Hkr1ΔSTR-HA (Saccharomyces cerevisiae)", "assay": "co-IP; Hkr1ΔSTR-HA and Opy2-GFP constructs expressed in TM257 or QG158; lysate in Buffer A with 1% digitonin; Hkr1ΔSTR-HA immunoprecipitated, Opy2-GFP detected by immunoblotting"}}, "note": "No constants are given. Whether binding was seen depends on the method and setting. Binding seen in cells or lysates may run through a third protein. For part of these data: Binding can be weak; no strength is given. For part of these data: Sequences can lack the tags named with a protein."}
{"molecule": "Opy2-I100D-GFP (from UniProt Q06810)", "values": [{"measurement": "binding", "setting": "[1]", "result": "no binding"}]}
{"molecule": "HA-Ste11ΔC (domain or fragment, UniProt P23561 1-413) MEQTQTAEGTDLLIGDEKTNDLPFVQLFLEEIGCTQYLDSFIQCNLVTEEEIKYLDKDILIALGVNKIGDRLKILRKSKSFQRDKRIEQVNRLKNLMEKVSSLSTATLSMNSELIPEKHCVIFILNDGSAKKVNVNGCFNADSIKKRLIRRLPHELLATNSNGEVTKMVQDYDVFVLDYTKNVLHLLYDVELVTICHANDRVEKNRLIFVSKDQTPSDKAISTSKKLYLRTLSALSQVGPSSSNLLAQNKGISHNNAEGKLRIDNTEKDRIRQIFNQRPPSEFISTNLAGYFPHTDMKRLQKTMRESFRHSARLSIAQRRPLSAESNNIGDILLKHSNAVDMALLQGLDQTRLSSKLDTTKIPKLAHKRPEDNDAISNQLELLSVESGEEEDHDFFGEDSDIVSLPTKIATPK", "values": [{"measurement": "binding", "setting": "[2]", "result": "binds"}]}
{"molecule": "Opy2-GFP (protein, UniProt Q06810 1-360) MSSSSKASASSSLSSTATSSTSATRGSDGCVVCDSTASCPVCASGEYCVMTSLTCDKCPSTYCAKQSDSQLSSLSSSSSSSSSSNSNEKTSLIVGFTVGIVGGAMLIALVALYFINKRYWKPKRQKNKALKLEEASQSYGNEEEYFDDEDDDDEDDEDDGGMRKDESHTLFNTSLVPPTLNVPGNRSSASTTRTRASNILPIAYIPGVTSGLSTDKLQSKLRSSSKRQNAAGDIRSHITLGSSILDGLDDEDDEHNQVLNKDADDNLITAIRAKPKLVQIAEEESDKEIQDLDVIEEQTEADDLSHMAKSEASHGNNDEDDDEEGSFILDLEIPESIRESTQGSRTESPFEDKFEIHDER", "values": [{"measurement": "binding", "setting": "[3]", "result": "binds"}]}
